Measured data: PubChem BioAssay AID1224830 (NIAID, 2016)
Purpose: 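Host factors that control LPS-induced TNF expression in human macrophages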 (primary screen). Cells: human THP-1 monocytic leukaemia cells, TNF dual-luciferase reporter clone, PMA-differentiated to macrophage-like cells. Reagent: siRNA pool against human genes, 50 nM. Time to read-out: LPS for 4 h, given about 3 days after siRNA transfection. Challenge: bacterial LPS (TLR4 ligand), 10 ng/ml. Detection: 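Ratio of firefly to renilla light, scaled to the plate median and expressed as a robust z-score per replicate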. Direction: TNF reporter robust z-score: higher = stronger TNF reporter response to LPS. Call rule: 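Each well counts as active if its z-score is over 2.8 or under -1.5; controls are left without a call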.
In all, the deposit lists about 18,000 reagents; below is a random part of them. In the full data, about 2,900 (16%) are marked active. 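Calls are made per well; low scores hint the gene aids the LPS response, high scores that it dampens it.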 The numbers tell different reagents against one gene apart. Repeated entries: four replicate wells of each siRNA pool. Reagent sequences are not shown.

gene	reagent	TNF reporter robust z-score	Call
GTF2F2 (general transcription factor IIF subunit 2)	1	-0.59	inactive
GTF2F2 (general transcription factor IIF subunit 2)	1	0.44	inactive
GTF2F2 (general transcription factor IIF subunit 2)	1	-0.65	inactive
GTF2F2 (general transcription factor IIF subunit 2)	1	0.2	inactive
SLC7A6	1	0.3	inactive
SLC7A6	1	0.54	inactive
SLC7A6	1	1.21	inactive
SLC7A6	1	3.63	active
LAX1 (lymphocyte transmembrane adaptor 1)	1	-1.01	inactive
LAX1 (lymphocyte transmembrane adaptor 1)	1	-0.87	inactive
LAX1 (lymphocyte transmembrane adaptor 1)	1	-0.23	inactive
LAX1 (lymphocyte transmembrane adaptor 1)	1	-0.46	inactive
EIF3L (eukaryotic translation initiation factor 3 subunit L)	1	0.17	inactive
EIF3L (eukaryotic translation initiation factor 3 subunit L)	1	-0.47	inactive
EIF3L (eukaryotic translation initiation factor 3 subunit L)	1	-0.12	inactive
EIF3L (eukaryotic translation initiation factor 3 subunit L)	1	0.87	inactive
SPANXB1 (SPANX family member B1)	1	0.3	inactive
SPANXB1 (SPANX family member B1)	1	1.01	inactive
SPANXB1 (SPANX family member B1)	1	0.88	inactive
SPANXB1 (SPANX family member B1)	1	0.78	inactive
SPANXB1 (SPANX family member B1)	2	1.14	inactive
SPANXB1 (SPANX family member B1)	2	2.34	inactive
SPANXB1 (SPANX family member B1)	2	1.52	inactive
SPANXB1 (SPANX family member B1)	2	2.98	active
FJX1 (four-jointed box kinase 1)	1	0.49	inactive
FJX1 (four-jointed box kinase 1)	1	2.94	active
FJX1 (four-jointed box kinase 1)	1	1.1	inactive
FJX1 (four-jointed box kinase 1)	1	0.5	inactive
NCAM1 (neural cell adhesion molecule 1)	1	-1.68	active
NCAM1 (neural cell adhesion molecule 1)	1	-1.14	inactive
NCAM1 (neural cell adhesion molecule 1)	1	-1.54	active
NCAM1 (neural cell adhesion molecule 1)	1	-1.3	inactive
LYZL1 (lysozyme like 1)	1	-1.98	active
LYZL1 (lysozyme like 1)	1	-1.7	active
LYZL1 (lysozyme like 1)	1	-1.18	inactive
LYZL1 (lysozyme like 1)	1	-0.52	inactive
CFTR (CF transmembrane conductance regulator)	1	-0.73	inactive
CFTR (CF transmembrane conductance regulator)	1	-0.78	inactive
CFTR (CF transmembrane conductance regulator)	1	-0.53	inactive
CFTR (CF transmembrane conductance regulator)	1	0.13	inactive
CDHR3 (cadherin related family member 3)	1	-0.27	inactive
CDHR3 (cadherin related family member 3)	1	-0.95	inactive
CDHR3 (cadherin related family member 3)	1	-0.57	inactive
CDHR3 (cadherin related family member 3)	1	-0.06	inactive
EFCAB12 (EF-hand calcium binding domain 12)	1	-0.65	inactive
EFCAB12 (EF-hand calcium binding domain 12)	1	2.17	inactive
EFCAB12 (EF-hand calcium binding domain 12)	1	-0.67	inactive
EFCAB12 (EF-hand calcium binding domain 12)	1	0.15	inactive
EVI5 (ecotropic viral integration site 5)	1	-0.89	inactive
EVI5 (ecotropic viral integration site 5)	1	-0.9	inactive
EVI5 (ecotropic viral integration site 5)	1	-0.72	inactive
EVI5 (ecotropic viral integration site 5)	1	0.23	inactive
KDM8 (lysine demethylase 8 (putative))	1	0.5	inactive
KDM8 (lysine demethylase 8 (putative))	1	2.99	active
KDM8 (lysine demethylase 8 (putative))	1	2.42	inactive
KDM8 (lysine demethylase 8 (putative))	1	1.54	inactive
STARD8 (StAR related lipid transfer domain containing 8)	1	-0.72	inactive
STARD8 (StAR related lipid transfer domain containing 8)	1	-0.43	inactive
STARD8 (StAR related lipid transfer domain containing 8)	1	-0.07	inactive
STARD8 (StAR related lipid transfer domain containing 8)	1	0.27	inactive
OCLM (retired record)	1	-1.34	inactive
OCLM (retired record)	1	-0.33	inactive
OCLM (retired record)	1	-0.89	inactive
OCLM (retired record)	1	0.87	inactive
PCNP (PEST proteolytic signal containing nuclear protein)	1	1.11	inactive
PCNP (PEST proteolytic signal containing nuclear protein)	1	3.35	active
PCNP (PEST proteolytic signal containing nuclear protein)	1	-0.08	inactive
PCNP (PEST proteolytic signal containing nuclear protein)	1	-0.46	inactive
SLC4A10	1	0.54	inactive
SLC4A10	1	1.16	inactive
SLC4A10	1	1.54	inactive
SLC4A10	1	1.92	inactive
LDHAL6B (lactate dehydrogenase A like 6B)	1	-1.57	active
LDHAL6B (lactate dehydrogenase A like 6B)	1	-0.77	inactive
LDHAL6B (lactate dehydrogenase A like 6B)	1	-1.05	inactive
LDHAL6B (lactate dehydrogenase A like 6B)	1	-0.49	inactive

10 entries from above in another layout.
gene,reagent,TNF reporter robust z-score,Call
GTF2F2 (general transcription factor IIF subunit 2),1,0.2,inactive
SLC7A6,1,0.3,inactive
SLC7A6,1,0.54,inactive
SLC7A6,1,1.21,inactive
SLC7A6,1,3.63,active
LAX1 (lymphocyte transmembrane adaptor 1),1,-1.01,inactive
LAX1 (lymphocyte transmembrane adaptor 1),1,-0.87,inactive
LAX1 (lymphocyte transmembrane adaptor 1),1,-0.23,inactive
LAX1 (lymphocyte transmembrane adaptor 1),1,-0.46,inactive
EIF3L (eukaryotic translation initiation factor 3 subunit L),1,0.17,inactive

Continued:
gene	reagent	TNF reporter robust z-score	Call
GMFG (glia maturation factor gamma)	1	0.04	inactive
GMFG (glia maturation factor gamma)	1	0.19	inactive
GMFG (glia maturation factor gamma)	1	0.33	inactive
GMFG (glia maturation factor gamma)	1	1.79	inactive
MAD1L1 (mitotic arrest deficient 1 like 1)	1	1.95	inactive
MAD1L1 (mitotic arrest deficient 1 like 1)	1	6.05	active
MAD1L1 (mitotic arrest deficient 1 like 1)	1	1.71	inactive
MAD1L1 (mitotic arrest deficient 1 like 1)	1	2.95	active
TLL1 (tolloid like 1)	1	-1	inactive
TLL1 (tolloid like 1)	1	0.32	inactive
TLL1 (tolloid like 1)	1	-1.24	inactive
TLL1 (tolloid like 1)	1	-1.11	inactive
MAPKAPK5 (MAPK activated protein kinase 5)	1	1.43	inactive
MAPKAPK5 (MAPK activated protein kinase 5)	1	-0.94	inactive
MAPKAPK5 (MAPK activated protein kinase 5)	1	0.19	inactive
MAPKAPK5 (MAPK activated protein kinase 5)	1	1.96	inactive
QKI (QKI, KH domain containing RNA binding)	1	1.7	inactive
QKI (QKI, KH domain containing RNA binding)	1	1.01	inactive
QKI (QKI, KH domain containing RNA binding)	1	-0.82	inactive
QKI (QKI, KH domain containing RNA binding)	1	-0.96	inactive
BRD8 (bromodomain containing 8)	1	-0.34	inactive
BRD8 (bromodomain containing 8)	1	-1.11	inactive
BRD8 (bromodomain containing 8)	1	-0.1	inactive
BRD8 (bromodomain containing 8)	1	-0.25	inactive
TMPO (thymopoietin)	1	0.05	inactive
TMPO (thymopoietin)	1	1.25	inactive
TMPO (thymopoietin)	1	-0.02	inactive
TMPO (thymopoietin)	1	0.79	inactive
NEK6 (NIMA related kinase 6)	1	0.38	inactive
NEK6 (NIMA related kinase 6)	1	1.05	inactive
NEK6 (NIMA related kinase 6)	1	0.67	inactive
NEK6 (NIMA related kinase 6)	1	3.54	active
CCDC9 (coiled-coil domain containing 9)	1	-1.45	inactive
CCDC9 (coiled-coil domain containing 9)	1	-1.39	inactive
CCDC9 (coiled-coil domain containing 9)	1	-1.7	active
CCDC9 (coiled-coil domain containing 9)	1	-1.25	inactive
SLC35E2A	1	-0.52	inactive
SLC35E2A	1	-0.9	inactive
SLC35E2A	1	-0.48	inactive
SLC35E2A	1	-0.23	inactive
LILRB2 (leukocyte immunoglobulin like receptor B2)	1	1.07	inactive
LILRB2 (leukocyte immunoglobulin like receptor B2)	1	0.38	inactive
LILRB2 (leukocyte immunoglobulin like receptor B2)	1	1.48	inactive
LILRB2 (leukocyte immunoglobulin like receptor B2)	1	1.19	inactive
MYT1L (myelin transcription factor 1 like)	1	0.49	inactive
MYT1L (myelin transcription factor 1 like)	1	0.57	inactive
MYT1L (myelin transcription factor 1 like)	1	0.6	inactive
MYT1L (myelin transcription factor 1 like)	1	1.26	inactive
KBTBD6 (kelch repeat and BTB domain containing 6)	1	2.5	inactive
KBTBD6 (kelch repeat and BTB domain containing 6)	1	1.97	inactive
KBTBD6 (kelch repeat and BTB domain containing 6)	1	3.52	active
KBTBD6 (kelch repeat and BTB domain containing 6)	1	1.62	inactive
ZBED2 (zinc finger BED-type containing 2)	1	0.29	inactive
ZBED2 (zinc finger BED-type containing 2)	1	0.39	inactive
ZBED2 (zinc finger BED-type containing 2)	1	0.25	inactive
ZBED2 (zinc finger BED-type containing 2)	1	0.32	inactive
P3H1 (prolyl 3-hydroxylase 1)	1	-1.43	inactive
P3H1 (prolyl 3-hydroxylase 1)	1	-1.04	inactive
P3H1 (prolyl 3-hydroxylase 1)	1	-0.92	inactive
P3H1 (prolyl 3-hydroxylase 1)	1	-1.28	inactive
ZNF337 (zinc finger protein 337)	1	-0.18	inactive
ZNF337 (zinc finger protein 337)	1	-0.03	inactive
ZNF337 (zinc finger protein 337)	1	0.01	inactive
ZNF337 (zinc finger protein 337)	1	0.03	inactive
